Measured data: PubChem BioAssay AID652243 (Drosophila RNAi Screening Center, 2013)

Aim: 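Fly genes required for human androgen receptor driven transcription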 (primary screen)
System: Drosophila S2R+ cells
Knock-down reagent: long dsRNA against Drosophila genes
Timing: 72 h (48 h, then 24 h hormone)
Conditions: synthetic androgen R1881 at 10 nM for 24 h
Detection: 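Per-well raw luminescence of the androgen-driven firefly reporter and of the Renilla control, two replicates each, without normalisation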
Reading the numbers: firefly reporter light: higher = more light from androgen-responsive reporter; Renilla control light: higher = more constitutive control signal (cell number, transfection)
Active means: 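Across duplicate plates, a knock-down whose log firefly/Renilla ratio shifted a set fold down or up from the GFP/LacZ control mean was a hit; the downward cut appears as both 1.5 and 3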
Meaning of the calls: active = hit: reporter lowered or raised; inactive = no hit
In all, the deposit lists about 24,000 reagents; shown is a random part of those that have a named target and a result. Of all reagents, 246 (1%) are marked active. 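Plates not normalised; calls are printed but the firefly/Renilla ratio behind them is not deposited; fold cut for lowering reported inconsistently.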 Raw values vary from plate to plate and are shown uncorrected. A number with no mark means an inactive call. Not stated in the record: the amount of reagent.

What did the screen give for CG9205 [DRSC08642]?
firefly reporter light, replicate 1: 1.13e6; firefly reporter light, replicate 2: 9.33e5; Renilla control light, replicate 1: 1.69e6; Renilla control light, replicate 2: 1.71e6

For CG6414 [DRSC18401], what does the deposit list?
firefly reporter light, replicate 1: 2.16e5; firefly reporter light, replicate 2: 1.79e5; Renilla control light, replicate 1: 2.53e6; Renilla control light, replicate 2: 2.39e6

With CG14301 [DRSC14780], how do the results read?
firefly reporter light, replicate 1: 2.17e5; firefly reporter light, replicate 2: 3.79e5; Renilla control light, replicate 1: 3.26e6; Renilla control light, replicate 2: 4.18e6

With Prosbeta3 [DRSC16801], how do the results read?
firefly reporter light, replicate 1: 37277; firefly reporter light, replicate 2: 27186; Renilla control light, replicate 1: 3.06e5; Renilla control light, replicate 2: 3.43e5

With CG6800 [DRSC16119], how do the results read?
firefly reporter light, replicate 1: 2.78e5; firefly reporter light, replicate 2: 3.60e5; Renilla control light, replicate 1: 3.68e6; Renilla control light, replicate 2: 3.22e6

Which result is listed for CG34302 [DRSC38824]?
firefly reporter light, replicate 1: 1.09e6; firefly reporter light, replicate 2: 9.93e5; Renilla control light, replicate 1: 1.88e6; Renilla control light, replicate 2: 1.75e6

Which result is listed for Mppe [DRSC07296]?
firefly reporter light, replicate 1: 8.59e5; firefly reporter light, replicate 2: 7.56e5; Renilla control light, replicate 1: 1.51e6; Renilla control light, replicate 2: 1.46e6

For RabX5 [DRSC08608], what does the deposit list?
firefly reporter light, replicate 1: 94106; firefly reporter light, replicate 2: 1.03e5; Renilla control light, replicate 1: 1.14e6; Renilla control light, replicate 2: 9.80e5

With RabX5 [DRSC28950], how do the results read?
firefly reporter light, replicate 1: 1.08e6; firefly reporter light, replicate 2: 8.34e5; Renilla control light, replicate 1: 1.55e6; Renilla control light, replicate 2: 1.43e6

How did the screen score soti [DRSC16432]?
firefly reporter light, replicate 1: 85148; firefly reporter light, replicate 2: 1.20e5; Renilla control light, replicate 1: 7.57e5; Renilla control light, replicate 2: 1.13e6

What did the screen give for soti [DRSC28682]?
firefly reporter light, replicate 1: 3.76e5; firefly reporter light, replicate 2: 3.94e5; Renilla control light, replicate 1: 1.36e6; Renilla control light, replicate 2: 1.41e6

What is on record for Opa1 [DRSC07191]?
firefly reporter light, replicate 1: 1.27e6; firefly reporter light, replicate 2: 6.22e5; Renilla control light, replicate 1: 1.57e6; Renilla control light, replicate 2: 8.58e5

For Opa1 [DRSC28908], how do the results read?
firefly reporter light, replicate 1: 3.22e5; firefly reporter light, replicate 2: 4.21e5; Renilla control light, replicate 1: 9.33e5; Renilla control light, replicate 2: 9.03e5
